Reference: patent publication US10016372B2 (priority 2016, dated 2018)

Assay: Projected steady-state pharmacokinetics, once-weekly transdermal vs 10 mg once-daily oral donepezil
Details: 10 mg oral once daily

COc1cc2c(cc1OC)C(=O)C(CC1CCN(Cc3ccccc3)CC1)C2 (stereo not shown) [oral donepezil, donepezil]
Geometric mean Cmin: 30.8 ng/mL
